For one substance, binding results are on record in PMC8294767.

Sequences of proteins named here, by UniProt entry; tags and fusion partners are left off. Residues count along the entry.
UniProt P17931: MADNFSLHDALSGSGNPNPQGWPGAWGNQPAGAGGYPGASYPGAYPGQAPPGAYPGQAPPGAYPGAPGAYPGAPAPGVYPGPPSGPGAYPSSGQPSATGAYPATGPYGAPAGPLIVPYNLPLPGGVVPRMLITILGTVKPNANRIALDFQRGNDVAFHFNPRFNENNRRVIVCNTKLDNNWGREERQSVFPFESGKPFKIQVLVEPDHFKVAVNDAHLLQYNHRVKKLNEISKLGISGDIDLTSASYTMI
UniProt Q9HCN6, residues 21-339: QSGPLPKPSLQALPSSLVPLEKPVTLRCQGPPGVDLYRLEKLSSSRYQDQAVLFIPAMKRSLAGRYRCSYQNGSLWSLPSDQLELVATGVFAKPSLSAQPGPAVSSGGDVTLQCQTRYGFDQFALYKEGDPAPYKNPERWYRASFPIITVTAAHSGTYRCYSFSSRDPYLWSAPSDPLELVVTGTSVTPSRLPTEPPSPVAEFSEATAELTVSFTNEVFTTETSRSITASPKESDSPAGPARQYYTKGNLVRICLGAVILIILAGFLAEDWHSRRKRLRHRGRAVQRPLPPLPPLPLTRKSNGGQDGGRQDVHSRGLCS

Test [1] has as its target galectin-3 (human (endogenous in A2780)) (UniProt P17931). As to the kind of experiment: SPR; inhibition: Revacept (40 ug/ml) added with purified GPVI and injected over galectin-3 immobilised on a streptavidin-coated chip; HBS-EP-EDTA running buffer, pH 7.4; both purified.
The target is the same in test [2]. As to the kind of experiment: SPR; Nicoya instrument; biotinylated galectin-3 immobilised on a streptavidin-coated chip (~50 RU); purified GPVI (100 ul) injected at 20 ul/min; HBS-EP-EDTA running buffer (0.01 M Hepes, 0.15 M NaCl, 3 mM EDTA, pH 7.4); Langmuir fit; both purified.

Results are given in words; binding and its absence hold for the method and conditions named. Some binding calls cover weakened binding; strength is not graded here.

For “platelet glycoprotein VI (GPVI) (from UniProt Q9HCN6 21-339) (receptor)”, the binding result in test [1] and in test [2] was “binds” throughout.
